Where “and” joins values, the source holds several entries; their conditions need not be identical. Identical values can stand only once. At least one read-out could not be matched to a standard name with certainty.
Test system: estradiol-induced increase in uterine weight
Test: Anti-estrogenic activity (oral administration) in ovariectomized mice administered with 17β-estradiol
Format: in vivo
Details: 10 mg/kg p.o. once a day for 3 days, suspended in 5% arabic gum; ovariectomized ICR mice given 17β-estradiol-benzoate 0.1 μg/mouse s.c. for 3 days; uteri weighed 24 hours after last administration
Method: Test compounds were assayed for their oral anti-estrogenic activity in the following manner. In this experiment, the compounds prepared in Examples mentioned above were used as test compounds. As control compounds, the following three were used: a compound described in Example 7 of WO98/25916; ZM; and a compound corresponding to general formula (1) of the present invention, provided that R2 was a C2 perfluoroalkyl group (perfluoroethyl), i.e., 10-[(3RS,4RS)-7-hydroxy-3-(4-hydroxyphenyl)-3-methylthiochroman-4-yl]-2-(4,4,5,5,5-pentafluoropentyl)decanoic acid, which had been synthesized according to Reaction Schemes 1 to 7 mentioned above.
In this experiment, each of the test and control compounds was suspended in 5% arabic gum solution and orally administered for 3 days on a once-a-day basis. After 24 hours from the last administration, the test animals were sacrificed and the uteri were removed and weighed.

With `C[C@@]1(c2ccc(O)cc2)CSc2cc(O)ccc2[C@@H]1CCCCCCCCC(CCC(F)(F)C(F)(F)C(F)(F)C(F)(F)F)C(=O)O` (single isomer, unassigned) [Example 21, Peak 2] the “Inhibition (%) of the increase in uterine weight” value was 96% and 91%.

— US6552069B1, “3-methyl-chroman and -thiochroman derivatives” (Chugai Seiyaku Kabushiki Kaisha, priority 1999, dated 2003)
